Data set [1] is described as follows: Qualitative GC-MS analysis of aromatic compounds transferred from a rosemary vegetal matrix into the filtrate, versus hexane extract. Also on record: key: The “x” represents the qualitative presence of the compound in the extract; —: the “−” represents its absence. Particulars: Table 5, filtrate (n=3).
Data set [2] can be described thus: Total free carotenoid content after saponification of paprika powder, residue/GML and filtrate/GML (UPLC, UV 470 nm). Particulars: for total free carotenoid content after saponification, Paprika filtrate/GML (n = 3) / total free carotenoid content after saponification, Paprika powder / total free carotenoid content after saponification, Paprika residue/GML (n = 3): mean±standard deviation (n=3).

Data set [3] is described as follows: Qualitative GC-MS analysis of aromatic compounds transferred from a rosemary vegetal matrix into the filtrate, versus hexane extract. The arrangement: key: The “x” represents the qualitative presence of the compound in the extract in question; —: the “−” represents its absence. Particulars: Table 5, filtrate (n=3).

In the case of `C=C(C)[C@H]1CC=C(C)CC1` [limonene], the “qualitative presence in Extract according to process of invention” value (shortened to “qualitative presence”) in data set [1] is listed as “—”.

As for `C=CC(=C)CCC=C(C)C` [myrcene], the “qualitative presence” value in data set [1] is given as “—”.

Consider `Cc1ccc(C(C)C)cc1` [p-cymene], for which, in data set [1], the “qualitative presence” value is “—”.

For the compound `CC1=C(/C=C/C(C)=C/C=C/C(C)=C/C=C/C=C(C)/C=C/C=C(C)/C=C/C2=C(C)C[C@@H](O)CC2(C)C)C(C)(C)C[C@H](O)C1` [Zeaxanthin], in data set [2], the “total free carotenoid content after saponification, Paprika filtrate/GML (n = 3)” value worked out at 75.2 ± 12.3 µg/g; the “total free carotenoid content after saponification, Paprika powder” value (from here on “total free carotenoid content … Paprika powder”) was determined as 79.6 ± 13.1 µg/g; the “total free carotenoid content after saponification, Paprika residue/GML (n = 3)” value amounted to 37.5 ± 4.0 µg/g; the “share of the total carotenoids identified in paprika powder” value (“share” below) came to 9.7%.

Consider δ-alacorene, for which the “qualitative presence” value in data set [1] is listed as “—”.

Consider `Cc1ccc(C(C)C)cc1O` [carvacrol], for which the “qualitative presence” value in data set [1] is given as “—”.

Consider `C=C1CCC2CC1C2(C)C` (stereo not shown) [6-pinene], for which the “qualitative presence” value in data set [1] was “—”.

With `CC1=C[C@H]2C(=C(C)CC[C@H]2C(C)C)CC1` [δ-amorphene], the “qualitative presence” value in data set [1] is given as “—”.

Regarding `C=C(C)[C@@H]1CCC(=C)[C@@H](O)C1` (relative stereo) [trans-p-mentha-1(7),8-dien-2-ol], in data set [3], the “qualitative presence” value is recorded as “x”.

`C=C1CCC(C(C)(C)O)CC1` [δ-terpineol]: the “qualitative presence” value in data set [1] is listed as “—”.

For the compound `C=C1C2CCC(C2)C1(C)C.O` (stereo not shown) [camphene hydrate], the “qualitative presence” value in data set [1] is recorded as “—”.

`CC12CCC(CC1=O)C2(C)C` (stereo not shown) [camphre]: the “qualitative presence” value in data set [3] is on record as “x”.

For the compound `CC1=C(/C=C/C(C)=C/C=C/C(C)=C/C=C/C=C(C)/C=C/C=C(C)/C=C/C2=C(C)C[C@@H](O)CC2(C)C)C(C)(C)CCC1` [β-Cryptoxanthin], in data set [2], the “total free carotenoid content after saponification, Paprika filtrate/GML (n = 3)” value is 34.6 ± 4.9 µg/g; the “total free carotenoid content … Paprika powder” value amounted to 27.4 ± 6.1 µg/g; the “total free carotenoid content after saponification, Paprika residue/GML (n = 3)” value amounted to 16 ± 1.2 µg/g; the “share” value was found to be 3.3%.

On to `CC12CCC(CC1)C(C)(C)O2` [1,8 cineole], for which the “qualitative presence” value in data set [3] is “x”.

In the case of `C/C1=C\CC/C(C)=C/CC(C)(C)/C=C/C1` [α-caryophyllene], in data set [3], the “qualitative presence” value is recorded as “x”.

In the case of `CCCCCCCCCCCCCCCC(=O)O` [acide hexadecanoique], the “qualitative presence” value in data set [3] is “x”.

As for `CC1=CCC2C(=O)C1C2(C)C` (stereo not shown) [chrysanthenone], the “qualitative presence” value in data set [1] is listed as “—”.

As to `C=C(C)c1ccc(C)cc1` [p-cymenene], the “qualitative presence” value in data set [1] is reported as “—”.

With `C=C(C)[C@@H]1CC=C(C)[C@@H](O)C1` (relative stereo) [trans-carveol], the “qualitative presence” value in data set [1] was “—”.

As to `C=CC(C)(CCC=C(C)C)OC(=O)C(C)C` (stereo not shown) [linalool isobutanoate], in data set [1], the “qualitative presence” value was “—”.

Take `CC1=C(/C=C/C(C)=C/C=C/C(C)=C/C=C/C=C(C)/C=C/C=C(C)/C=C/C(=O)[C@]2(C)C[C@@H](O)CC2(C)C)C(C)(C)C[C@H](O)C1` [Capsanthin]: in data set [2], the “total free carotenoid content after saponification, Paprika filtrate/GML (n = 3)” value is 233.2 ± 43.3 µg/g; the “total free carotenoid content … Paprika powder” value is 456.6 ± 87.8 µg/g; the “total free carotenoid content after saponification, Paprika residue/GML (n = 3)” value came to 156.7 ± 43 µg/g; the “share” value is about 56%. In addition, the “extracted and transferred in the filtrate” value in data set [2] (paprika, glycerol monolaurate filtrate versus powder) is listed as 51%.

Turning to `C/C=C\c1ccc(OC(C)=O)c(OC)c1` [Z-isoeugenol acetate], in data set [1], the “qualitative presence” value is given as “—”.

On to `CC1(C)C2CCC1(C)C(O)C2` (stereo not shown) [borneol], for which, in data set [3], the “qualitative presence” value is recorded as “x”.

On to `CC(/C=C/C=C(C)/C=C/C(=O)[C@]1(C)C[C@@H](O)CC1(C)C)=C\C=C\C=C(C)\C=C\C=C(C)\C=C\C(=O)[C@]1(C)C[C@@H](O)CC1(C)C` [Capsorubin], for which, in data set [2], the “total free carotenoid content after saponification, Paprika filtrate/GML (n = 3)” value turned out to be 8.2 ± 2.1 µg/g; the “total free carotenoid content … Paprika powder” value was 91.7 ± 23.6 µg/g; the “total free carotenoid content after saponification, Paprika residue/GML (n = 3)” value worked out at 15.8 ± 4.2 µg/g; the “share” value stood at 11.1%.

For the compound `CC1=CCC(C(C)C)c2cc(C)ccc21` (stereo not drawn) [α-calacorene], the “qualitative presence” value in data set [3] is listed as “x”.

As to `CC1=CC2C(CC1)C(C)=CCC2C(C)C` (stereo not drawn) [α-amorphene], in data set [1], the “qualitative presence” value is reported as “—”.

Regarding 6-isocomene, the “qualitative presence” value in data set [1] is “—”.

`C=C1CC/C=C(/CO)CC[C@@H]2[C@H]1CC2(C)C` [14-hydroxy-9-epi-(E)-caryophyllene]: in data set [3], the “qualitative presence” value is reported as “x”.

Consider `C/C1=C\CC(C)(C)/C=C/C/C(CO)=C/CC1` [14-hydroxy-α-humulene], for which the “qualitative presence” value in data set [1] was “—”.

Take `CC1=CCC(C(C)(C)O)CC1` (stereo not drawn) [α-terpineol]: the “qualitative presence” value in data set [3] is on record as “x”.

Regarding `CC1=CC(=O)[C@@H]2C[C@H]1C2(C)C` [verbenone], the “qualitative presence” value in data set [3] is “x”.

With `Cc1cccc(C)c1O` [2,6-dimethylphenol], the “qualitative presence” value in data set [1] was “—”.

As to `C=C1C2CCC(C2)C1(C)C` (stereo not shown) [camphene], the “qualitative presence” value in data set [1] is “—”.

For `C=CC(C)(O)CCC=C(C)C` (stereo not shown) [linalool], the “qualitative presence” value in data set [3] was “x”.

As for `CC1=CC[C@H](CC=O)C1(C)C` [α-campholenal], in data set [1], the “qualitative presence” value is “—”.

On to `CC(=O)OC1CC2CCC1(C)C2(C)C` (stereo not shown) [bornyl acetate], for which, in data set [3], the “qualitative presence” value is given as “x”.

As for `CC1=CCC2CC1C2(C)C` (stereo not drawn) [α-pinene], in data set [3], the “qualitative presence” value is “x”.

For `CC1=CCC2C(C1)C2(C)C` (stereo not shown) [3-carene], in data set [1], the “qualitative presence” value is on record as “—”.

As to `CC1=CCC(O)(C(C)C)CC1` (stereo not shown) [terpinen-4-ol], the “qualitative presence” value in data set [3] was “x”.

Turning to `C=CC(C)(CCC=C(C)C)OC(C)=O` (stereo not shown) [linalyl acetate], the “qualitative presence” value in data set [1] is “—”.

For `CC1=CCC(=C(C)C)CC1` [terpinolene], the “qualitative presence” value in data set [1] is recorded as “—”.

For the compound `C=C(C)C1CC=C(C)C(=O)C1` (stereo not shown) [carvone], the “qualitative presence” value in data set [1] was “—”.

For `CC1=C(/C=C/C(C)=C/C=C/C(C)=C/C=C/C=C(C)/C=C/C=C(C)/C=C/C2=C(C)CCCC2(C)C)C(C)(C)CCC1` [β-Carotene], in data set [2], the “total free carotenoid content after saponification, Paprika filtrate/GML (n = 3)” value came out at 85.2 ± 12.4 µg/g; the “total free carotenoid content … Paprika powder” value came to 69.6 ± 6.7 µg/g; the “total free carotenoid content after saponification, Paprika residue/GML (n = 3)” value worked out at 37.5 ± 5.8 µg/g; the “share” value was 8.5%.

For `Cc1ccc2c(c1)[C@H](C(C)C)CC[C@@H]2C` (relative stereo) [cis-calamenene], the “qualitative presence” value in data set [3] is “x”.

As to `C=C1CCC2(C(C)C)CC12` (stereo not shown) [sabinene], the “qualitative presence” value in data set [1] is “—”.

Turning to y-terpinene, the “qualitative presence” value in data set [1] is recorded as “—”.

As to `C=CCc1ccc(O)c(OC)c1` [eugenol], the “qualitative presence” value in data set [3] was “x”.

Regarding `CC1=CC(=O)C(=C(C)C)CC1` [piperitenone], in data set [3], the “qualitative presence” value is “x”.

Turning to `CC1=CC=C(C(C)C)CC1` [α terpinene], the “qualitative presence” value in data set [1] is reported as “—”.

For `C=C1CC[C@H](C(C)C)[C@H]2C=C(C)CC[C@H]12` [y-cadinene], in data set [1], the “qualitative presence” value is reported as “—”.

Take `CC1=CC[C@@H]2[C@H]3[C@H](C(C)C)CC[C@]2(C)[C@@H]13` [α-ylangene]: the “qualitative presence” value in data set [3] was “x”.

Consider `CC1=C(/C=C/C(C)=C/C=C/C(C)=C/C=C/C=C(C)/C=C/C=C(C)/C=C/[C@@]23O[C@]2(C)C[C@@H](O)CC3(C)C)C(C)(C)C[C@H](O)C1` [Antheraxanthin], for which, in data set [2], the “total free carotenoid content after saponification, Paprika filtrate/GML (n = 3)” value amounted to 85.5 ± 16.6 µg/g; the “total free carotenoid content … Paprika powder” value was 96.8 ± 15.8 µg/g; the “total free carotenoid content after saponification, Paprika residue/GML (n = 3)” value was determined as 60.9 ± 19.8 µg/g; the “share” value is on record as 11.8%.

For `CC1=C[C@@H]2C(=C(C)CC[C@H]2C(C)C)CC1` [δ-cadinene], the “qualitative presence” value in data set [1] is on record as “—”.

In the case of `Cc1ccc(C(C)C)c(O)c1` [thymol], in data set [1], the “qualitative presence” value is on record as “—”.
